PubChem BioAssay AID1259283 – Sanger Institute | 2017

Assay: 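Kinases whose silencing adds to targeted drugs in killing colon cancer cells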 (primary screen)
Cells: HT115 colorectal cancer cells
Reagents: siRNA pool against human genes
Treatment: anchor drug given one day after siRNA: BYL719 at 1 µM, cetuximab at 5 µg/ml, trametinib at 10 nM, or DMSO vehicle alone
Measurement: 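Per-drug synergy scores plus replicate-mean viability relative to non-targeting pool #2 wells, also expressed as a robust z-score based on control wells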
Direction: robust z-score, knock-down alone: higher = more viable cells after knock-down; viability, DMSO vs non-targeting control: higher = more viable cells
Active means: 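Essential gene: robust z-score less than -3 with no drug added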
Meaning of the calls: active = essential (z below -3, no drug); inactive = no change without drug
This is a random part of 794 reagents tested. 14 of all reagents (1.8%) were called active. 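Calls reflect only viability loss without drug; drug synergy does not enter the call.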 Unmarked entries are inactive. No viability above 1 is reported: the scale is capped. Further read-outs or replicates are left out here. No sequences are given here. Not stated in the record: the amount of reagent, the time to read-out.

With knock-down of TAB1, the screen gave robust z-score, knock-down alone 0.789; viability, DMSO vs non-targeting control (fraction of control) = 1.
Silencing of CLSPN came out at: robust z-score, knock-down alone 0.789; viability, DMSO vs non-targeting control (fraction of control) = 1.
Knock-down of PIK3CA came out at: robust z-score, knock-down alone 0.789; viability, DMSO vs non-targeting control (fraction of control) = 1.
MAP4K5 scored robust z-score, knock-down alone -2.3; viability, DMSO vs non-targeting control (fraction of control) = 0.714.
Knock-down of ELF3 came out at: robust z-score, knock-down alone -2.41; viability, DMSO vs non-targeting control (fraction of control) = 0.704.
Depletion of PDGFRL resulted in: robust z-score, knock-down alone 0.161; viability, DMSO vs non-targeting control (fraction of control) = 0.942.
For NUAK2, the entry reads robust z-score, knock-down alone -0.176; viability, DMSO vs non-targeting control (fraction of control) = 0.911.
Against LATS2, the entry reads robust z-score, knock-down alone 0.789; viability, DMSO vs non-targeting control (fraction of control) = 1.
Knock-down of PIKFYVE came out at: robust z-score, knock-down alone 0.789; viability, DMSO vs non-targeting control (fraction of control) = 1.
Silencing of DLG4 came out at: robust z-score, knock-down alone -0.454; viability, DMSO vs non-targeting control (fraction of control) = 0.885.
RPS6KA5 gave robust z-score, knock-down alone -0.648; viability, DMSO vs non-targeting control (fraction of control) = 0.867.
Knock-down of SCYL3 came out at: robust z-score, knock-down alone -0.28; viability, DMSO vs non-targeting control (fraction of control) = 0.901.
With knock-down of FLT4 the results were robust z-score, knock-down alone -0.616; viability, DMSO vs non-targeting control (fraction of control) = 0.87.
Against PRKD3, the values are robust z-score, knock-down alone -1.03; viability, DMSO vs non-targeting control (fraction of control) = 0.832.
Knock-down of MAP3K7 resulted in: robust z-score, knock-down alone 0.789; viability, DMSO vs non-targeting control (fraction of control) = 1.
PIK3C2A showed robust z-score, knock-down alone -3.49 (active); viability, DMSO vs non-targeting control (fraction of control) = 0.604.
Silencing of ADCK5 gave: robust z-score, knock-down alone -1.18; viability, DMSO vs non-targeting control (fraction of control) = 0.818.
After knock-down of SRP72, the record shows robust z-score, knock-down alone -0.446; viability, DMSO vs non-targeting control (fraction of control) = 0.886.
After knock-down of PTK6, the screen gave robust z-score, knock-down alone 0.185; viability, DMSO vs non-targeting control (fraction of control) = 0.944.
Silencing of BUB1 gave: robust z-score, knock-down alone 0.131; viability, DMSO vs non-targeting control (fraction of control) = 0.939.
After knock-down of PRKACG the results were robust z-score, knock-down alone 0.656; viability, DMSO vs non-targeting control (fraction of control) = 0.988.
Silencing of AK3 gave: robust z-score, knock-down alone 0.789; viability, DMSO vs non-targeting control (fraction of control) = 1.
TYRO3 showed robust z-score, knock-down alone 0.789; viability, DMSO vs non-targeting control (fraction of control) = 1.
AK4 scored robust z-score, knock-down alone 0.388; viability, DMSO vs non-targeting control (fraction of control) = 0.963.
Against AURKB the deposit lists robust z-score, knock-down alone -1.18; viability, DMSO vs non-targeting control (fraction of control) = 0.818.
For SOS2, the values are robust z-score, knock-down alone 0.605; viability, DMSO vs non-targeting control (fraction of control) = 0.983.
Silencing of TESK1 gave: robust z-score, knock-down alone -0.731; viability, DMSO vs non-targeting control (fraction of control) = 0.86.
MYO3B gave robust z-score, knock-down alone -0.26; viability, DMSO vs non-targeting control (fraction of control) = 0.903.
Against CSNK1E, the values are robust z-score, knock-down alone 0.789; viability, DMSO vs non-targeting control (fraction of control) = 1.
CIT showed robust z-score, knock-down alone 0.108; viability, DMSO vs non-targeting control (fraction of control) = 0.937.
Knock-down of WEE1 resulted in: robust z-score, knock-down alone -2; viability, DMSO vs non-targeting control (fraction of control) = 0.742.
Depletion of CDC7 came out at: robust z-score, knock-down alone 0.601; viability, DMSO vs non-targeting control (fraction of control) = 0.983.
SIK3 scored robust z-score, knock-down alone 0.789; viability, DMSO vs non-targeting control (fraction of control) = 1.
Against PDGFRB, the values are robust z-score, knock-down alone -1.14; viability, DMSO vs non-targeting control (fraction of control) = 0.821.
Against CKM, the entry reads robust z-score, knock-down alone 0.789; viability, DMSO vs non-targeting control (fraction of control) = 1.
Against DYRK2 the deposit lists robust z-score, knock-down alone -0.321; viability, DMSO vs non-targeting control (fraction of control) = 0.897.
